Source: patent US20190046662A1, “Compositions and Methods for Treating Neuropathic Pain” (Rutgers, The State University of New Jersey, priority 2016, published 2019)
At least one compound was matched to its structure with a doubt left.

Target: T1, hSyn-hM4D (Homo sapiens, UniProt P08173, A203G/Y113C)
T1 construct: expressed in transfected cells; host or cells: rat trigeminal ganglion neurons in vivo, viral vector with synapsin promoter
T1 sequence (P08173 1-479 Y113C/A203G): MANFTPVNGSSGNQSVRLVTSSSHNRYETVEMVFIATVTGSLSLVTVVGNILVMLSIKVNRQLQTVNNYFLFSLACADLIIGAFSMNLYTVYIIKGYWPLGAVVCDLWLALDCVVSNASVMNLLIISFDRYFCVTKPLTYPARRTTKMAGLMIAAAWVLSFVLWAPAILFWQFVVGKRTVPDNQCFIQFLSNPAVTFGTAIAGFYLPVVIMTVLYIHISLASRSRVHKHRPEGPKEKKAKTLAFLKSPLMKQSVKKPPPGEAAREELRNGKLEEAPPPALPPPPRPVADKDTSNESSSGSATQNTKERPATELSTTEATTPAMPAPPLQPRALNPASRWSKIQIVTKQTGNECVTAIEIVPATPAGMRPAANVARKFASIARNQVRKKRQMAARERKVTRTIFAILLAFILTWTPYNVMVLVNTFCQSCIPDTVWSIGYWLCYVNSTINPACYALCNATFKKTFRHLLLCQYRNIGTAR
Assay: Face grooming after s.c. formalin into right upper lip, synapsin-DREADD (hSyn-hM4D)
Type: in vivo, rat
Conditions: females, n=7 per group, CNO i.p. 30 min prior to formalin, vs vehicle
Method: The effects of synapsin-DREADD activation with CNO on face grooming activity observed after subcutaneous (s.c.) injection of formalin into the right upper lip were also studied (FIG. 5). The mean number of seconds that rats (males, n=7 per group; females, n=7 per group) spent grooming (±SEM) is plotted for the 45 minutes post-formalin injection observation period. All animals had synapsin-DREADD (hSyn-hM4D) injected into the right trigeminal ganglion. CNO or vehicle was delivered intraperitoneally 30 minutes prior to the s.c. injection of 1.5% formalin (50 μl) into the right upper lip (ipsilateral side), just lateral to the nose.

C[N+]1([O-])CCN(C2=Nc3cc(Cl)ccc3Nc3ccccc32)CC1 [CNO, clozapine N-oxide]
total face grooming time, acute phase (0-6 minutes post formalin injection), ANOVA treatment: F=0.2, P=0.7
